The data set in a line: Body weight of experimental animals. In kind it is in vivo. Conditions: male Swiss albino mice, per treatment group, n=6.

In the case of `CCCCCCCCCCCCCCCC(=O)NCCO` [Composition P3A, palmitoylethanolamide], the Body weight is listed as 32.20 ± 0.52 gms.

The compound `CC(C)C[C@H](CN)CC(=O)O` [Pregabalin (LYRICA ®) 75 mg, Pregabalin, reference compound] returned a Body weight of 30.87 ± 0.37 gms.

Source of the values: patent US10653737B1, “Synergistic nutritional compositions for pain management” (Celagenex Research (India) Pvt. Ltd., priority 2019, dated 2020).
